# Some peptides are written in HELM: one residue between dots, names in brackets for other building blocks, links after the first $. *: point of attachment. Trt = c1ccc(C(c2ccccc2)(c2ccccc2)*)cc1; Fmoc = O=C(OCC1c2ccccc2-c2ccccc21)*; OtBu = CC(C)(C)O*; tBu = CC(C)(C)*
# Test: general procedure: solution-phase peptide synthesis; DCC/HOBt
Substance,step yield (late stage modification step),step yield (coupling step)
Ac-LE(OtBu)NY(tBu)C(Trt)N-OtBu,>100%,–
Ddz-Tyr(Bu^t)-Gln-Leu-Glu(OBu^t)-Asn-Tyr(Bu^t)-Cys(Trt)-Asn-OBu^t,–,76.8%
Fmoc-NY(tBu)C(Trt)N-OtBu,–,63%
H-Asn-Tyr-Cys-Asn-OH (SEQ ID No. 3),89%,–
H-NY(tBu)C(Trt)N-OtBu,65%,–
PEPTIDE1{[ac].L.E.N.Y.C.N}$$$$V2.0,87%,–

# Source: US5461035A (priority 1990, dated 1995)
